Test results reported in US20120083486A1, “KIT, COMPOSITION, PRODUCT OR MEDICAMENT FOR TREATING COGNITIVE IMPAIRMENT” (ZENYAKU KOGYO KABUSHIKIKAISHA, priority 2008, published 2012).

Tested on: scopolamine-induced cognitive impairment
Assay: passive avoidance task, scopolamine-induced cognitive impairment in mice
Format: in vivo
Conditions: scopolamine 1 mg/kg i.p. + 1% CMC, compared with 1% CMC and saline group; P<0.01
Procedure: Eight to nine week old male ICR strain mice (Charles River Laboratories Japan, Inc.) were used in the experiment. They were housed in a cage in groups of 3 or 4 mice, in a room maintained at around 22 degree C. under 12 hour light/dark cycles. Food and water were provided ad libitum. All animal care and treatment was conducted in accordance with the Guidelines for the Care and Use of Laboratory Animals, established at the Central Research Laboratory, Zenyaku Kogyo Co., Ltd.
Compound 1 and donepezil were suspended in 1% carboxymethyl cellulose (CMC). […] For the coadministration studies of Compound 1 and donepezil, both drug suspensions were mixed together and this mixed suspension was […]. All drugs were prepared immediately before use and orally administered at a dosage of 10 ml/kg.
The passive avoidance apparatus (Neuroscience Inc.) consisted of an illuminated chamber and a larger dark chamber. Two chambers were separated by a guillotine door. Oral administration of compound 1 at doses of 0.0001 mg/kg or 0.001 mg/kg and/or donepezil at doses of 0.01 and 0.1 mg/kg was given 60 min before the acquisition trial. […] The matched control group only received the vehicle. […] The interval between placement in the illuminated chamber and entry into the dark chamber was measured as step through latency (maximum 300 seconds). […]

Compound: CN1[C@@H]2C[C@@H](OC(=O)[C@H](CO)c3ccccc3)C[C@H]1[C@@H]1O[C@@H]12 [scopolamine]
- step-through latency in retention trial: markedly shorter
